Measurements reported in PubChem BioAssay AID1259405 (NCATS, 2018).
This is an unselected part of about 50,000 deposited reagents. Over the whole deposit, about 4,000 (8%) were called active. 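Mouse siRNA library applied to hamster cells; one well for each siRNA.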 Unmarked entries are inactive. The numbers tell different reagents against one gene apart.

Screen: 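Mouse-designed siRNAs used to find CHO productivity engineering targets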 (primary screen)
Cells: Chinese hamster CHO-K1 ovary cells with stable secreted eGFP expression
Reagents: single siRNA against mouse genes, 0.8 pmol siRNA per well (2 µl of 400 nM stock)
Duration: 3 days
Detection: 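Per-well intracellular GFP measured by laser scanning cytometry, plus viability from ATP luminescence, each relative to plate median of non-targeting control wells, in %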
Reading the numbers: GFP, % of control: higher = more GFP per well, higher productivity; viability (ATP), % of control: higher = more viable cells (more ATP)
Hit rule: 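Called active when intracellular GFP, relative to negative control, is at or above 120%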

The first 3 entries as a preview:
no.	gene	siRNA no.	GFP, % of control	viability (ATP), % of control
1	Ang2 (angiogenin, ribonuclease A family, member 2)	1	82.5	83.8
2	Ang2 (angiogenin, ribonuclease A family, member 2)	2	66.4	56.6
3	Ang2 (angiogenin, ribonuclease A family, member 2)	3	92.4	95.2

Main list, from the start:
no.	gene	siRNA no.	GFP, % of control	viability (ATP), % of control
1	Ang2 (angiogenin, ribonuclease A family, member 2)	1	82.5	83.8
2	Ang2 (angiogenin, ribonuclease A family, member 2)	2	66.4	56.6
3	Ang2 (angiogenin, ribonuclease A family, member 2)	3	92.4	95.2
4	Magee2 (MAGE family member E2)	1	89.3	88
5	Magee2 (MAGE family member E2)	2	80.9	85.9
6	Magee2 (MAGE family member E2)	3	61.4	62
7	Slc39a12	1	96.2	79
8	Slc39a12	2	81.5	63
9	Slc39a12	3	67.9	61.5
10	Txnl1 (thioredoxin-like 1)	1	64.8	53.5
11	Txnl1 (thioredoxin-like 1)	2	70.1	62.9
12	Txnl1 (thioredoxin-like 1)	3	21.4	24.7
13	Gck (glucokinase)	1	50.7	39.2
14	Rnf111 (ring finger protein 111)	1	77.7	42.8
15	Rnf111 (ring finger protein 111)	2	13.2	23.6
16	Slco1b2	1	63.8	87.5
17	Slco1b2	2	67.6	53.3
18	Slco1b2	3	101	71.2
19	Mrgprg (MAS-related GPR, member G)	1	191 (active)	107
20	Mrgprg (MAS-related GPR, member G)	2	76	68.5
21	Mrgprg (MAS-related GPR, member G)	3	63.8	58.7
22	Msln (mesothelin)	1	129 (active)	115
23	Msln (mesothelin)	2	90.3	85.7
24	Tango2 (transport and golgi organization 2)	1	59.8	98.4
25	Tango2 (transport and golgi organization 2)	2	51	62.3
26	Tango2 (transport and golgi organization 2)	3	104	70
27	Slc17a8	1	96.3	73.5
28	Slc17a8	2	114	73.9
29	Slc17a8	3	62.7	60.3
30	Sucla2 (succinate-Coenzyme A ligase, ADP-forming, beta subunit)	1	67.7	74.1
31	Sucla2 (succinate-Coenzyme A ligase, ADP-forming, beta subunit)	2	63.8	83.8
32	Proc (protein C)	1	63.1	72.1
33	Proc (protein C)	2	75.2	44.5
34	Proc (protein C)	3	70.4	48.8
35	Fshb (follicle stimulating hormone beta)	1	85.7	85.3
36	Fshb (follicle stimulating hormone beta)	2	40.2	58.4
37	Fshb (follicle stimulating hormone beta)	3	100	57.4
38	Or4c107 (olfactory receptor family 4 subfamily C member 107)	1	60.4	74.6
39	Or4c107 (olfactory receptor family 4 subfamily C member 107)	2	61.1	74.7
40	Or4c107 (olfactory receptor family 4 subfamily C member 107)	3	28.2	46
41	Adcy8 (adenylate cyclase 8)	1	140 (active)	117
42	Adcy8 (adenylate cyclase 8)	2	68.6	72
43	Adcy8 (adenylate cyclase 8)	3	98.4	77.2
44	Ikbke (inhibitor of kappaB kinase epsilon)	1	58.7	72.7
45	Ikbke (inhibitor of kappaB kinase epsilon)	2	78.8	62.8
46	Ikbke (inhibitor of kappaB kinase epsilon)	3	122 (active)	122
47	Phf14 (PHD finger protein 14)	1	62.8	66.4
48	Phf14 (PHD finger protein 14)	2	78.5	92.1
49	Phf14 (PHD finger protein 14)	3	56.3	63.8
50	Ppm1d (protein phosphatase 1D magnesium-dependent, delta isoform)	1	91.4	72.4
51	Ppm1d (protein phosphatase 1D magnesium-dependent, delta isoform)	2	62.2	70.1
52	Ppm1d (protein phosphatase 1D magnesium-dependent, delta isoform)	3	101	95
53	Spg7 (SPG7, paraplegin matrix AAA peptidase subunit)	1	63.6	102
54	Spg7 (SPG7, paraplegin matrix AAA peptidase subunit)	2	82.2	72.1
55	Spg7 (SPG7, paraplegin matrix AAA peptidase subunit)	3	54.4	74.1
56	Spg7 (SPG7, paraplegin matrix AAA peptidase subunit)	4	60.3	67.7
57	Spg7 (SPG7, paraplegin matrix AAA peptidase subunit)	5	27.6	39.9
58	Spg7 (SPG7, paraplegin matrix AAA peptidase subunit)	6	93.3	89.9
59	Phyhip (phytanoyl-CoA hydroxylase interacting protein)	1	118	82.4
60	Phyhip (phytanoyl-CoA hydroxylase interacting protein)	2	44.4	59.4
61	Cd48 (CD48 antigen)	1	69.5	60.3
62	Cd48 (CD48 antigen)	2	92	59.4
63	Cd48 (CD48 antigen)	3	108	65.1
64	Sar1b (secretion associated Ras related GTPase 1B)	1	85.7	58.5
65	Sar1b (secretion associated Ras related GTPase 1B)	2	86.1	79.2
66	Sar1b (secretion associated Ras related GTPase 1B)	3	48.4	59
67	Eea1 (early endosome antigen 1)	1	43.7	47.6
68	Eea1 (early endosome antigen 1)	2	101	69.3
69	Eea1 (early endosome antigen 1)	3	99.3	77.7
70	Casc3 (exon junction complex subunit)	1	173 (active)	97.1
71	Casc3 (exon junction complex subunit)	2	95.8	68.9
72	Casc3 (exon junction complex subunit)	3	137 (active)	68.2
73	Casc3 (exon junction complex subunit)	4	80.3	111
74	Casc3 (exon junction complex subunit)	5	83	90.8
75	Casc3 (exon junction complex subunit)	6	65	85.5
76	Ecd (ecdysoneless cell cycle regulator)	1	80.2	64.9
77	Ecd (ecdysoneless cell cycle regulator)	2	59.6	78.8
78	Ecd (ecdysoneless cell cycle regulator)	3	53	46
79	Gpr153 (G protein-coupled receptor 153)	1	40.8	64.9
80	Gpr153 (G protein-coupled receptor 153)	2	131 (active)	102
81	Ufc1 (ubiquitin-fold modifier conjugating enzyme 1)	1	71.2	87.2
82	Ufc1 (ubiquitin-fold modifier conjugating enzyme 1)	2	120 (active)	104
83	Ufc1 (ubiquitin-fold modifier conjugating enzyme 1)	3	63	63.1
84	Entpd1 (ectonucleoside triphosphate diphosphohydrolase 1)	1	76.1	80.6
85	Entpd1 (ectonucleoside triphosphate diphosphohydrolase 1)	2	107	82.9
86	Entpd1 (ectonucleoside triphosphate diphosphohydrolase 1)	3	106	88.9
